Here are results for 36 targets from the supplement of paper PMC7666118.

Protein sequences, listed by entry. Tags and fused reporters are not part of them. Lines headed by an entry give the natural chain unless they say otherwise; changes in a name come on top.
UniProt P30520: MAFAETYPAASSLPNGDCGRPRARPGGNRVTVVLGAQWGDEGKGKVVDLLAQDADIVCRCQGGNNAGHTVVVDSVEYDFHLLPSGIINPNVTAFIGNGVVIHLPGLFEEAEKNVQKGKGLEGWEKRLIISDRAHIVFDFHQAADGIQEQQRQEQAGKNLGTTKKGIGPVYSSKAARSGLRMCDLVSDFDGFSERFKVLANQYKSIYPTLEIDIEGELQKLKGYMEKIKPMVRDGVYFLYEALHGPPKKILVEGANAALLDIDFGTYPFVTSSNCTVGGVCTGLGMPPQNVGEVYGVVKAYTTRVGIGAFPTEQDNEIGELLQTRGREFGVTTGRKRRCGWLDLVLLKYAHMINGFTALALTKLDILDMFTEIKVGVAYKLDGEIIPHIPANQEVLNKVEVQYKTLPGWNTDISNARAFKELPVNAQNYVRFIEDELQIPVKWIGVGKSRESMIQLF
UniProt P14550: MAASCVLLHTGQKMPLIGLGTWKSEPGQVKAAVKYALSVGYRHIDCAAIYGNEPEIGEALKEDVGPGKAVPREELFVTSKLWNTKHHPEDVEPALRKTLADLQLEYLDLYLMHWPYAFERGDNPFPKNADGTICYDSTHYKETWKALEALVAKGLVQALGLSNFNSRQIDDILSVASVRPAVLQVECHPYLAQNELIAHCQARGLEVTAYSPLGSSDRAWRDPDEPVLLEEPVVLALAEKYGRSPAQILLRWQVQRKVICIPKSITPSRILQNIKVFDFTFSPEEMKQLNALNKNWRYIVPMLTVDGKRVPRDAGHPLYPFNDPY
UniProt Q12904: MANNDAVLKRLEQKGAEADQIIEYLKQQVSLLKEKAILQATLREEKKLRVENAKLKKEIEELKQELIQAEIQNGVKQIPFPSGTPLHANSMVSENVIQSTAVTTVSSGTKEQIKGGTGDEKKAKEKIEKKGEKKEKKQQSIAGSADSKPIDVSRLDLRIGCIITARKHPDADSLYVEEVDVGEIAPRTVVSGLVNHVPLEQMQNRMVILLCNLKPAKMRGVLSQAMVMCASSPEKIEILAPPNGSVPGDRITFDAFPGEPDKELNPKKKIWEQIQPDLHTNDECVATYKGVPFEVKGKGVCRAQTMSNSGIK
UniProt Q96IU4: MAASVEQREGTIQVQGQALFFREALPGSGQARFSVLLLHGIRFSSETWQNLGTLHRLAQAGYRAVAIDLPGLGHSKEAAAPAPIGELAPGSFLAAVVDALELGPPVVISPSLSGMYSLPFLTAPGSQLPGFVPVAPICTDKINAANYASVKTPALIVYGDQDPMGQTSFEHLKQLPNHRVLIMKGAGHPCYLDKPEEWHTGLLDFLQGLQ
UniProt Q8IYH5: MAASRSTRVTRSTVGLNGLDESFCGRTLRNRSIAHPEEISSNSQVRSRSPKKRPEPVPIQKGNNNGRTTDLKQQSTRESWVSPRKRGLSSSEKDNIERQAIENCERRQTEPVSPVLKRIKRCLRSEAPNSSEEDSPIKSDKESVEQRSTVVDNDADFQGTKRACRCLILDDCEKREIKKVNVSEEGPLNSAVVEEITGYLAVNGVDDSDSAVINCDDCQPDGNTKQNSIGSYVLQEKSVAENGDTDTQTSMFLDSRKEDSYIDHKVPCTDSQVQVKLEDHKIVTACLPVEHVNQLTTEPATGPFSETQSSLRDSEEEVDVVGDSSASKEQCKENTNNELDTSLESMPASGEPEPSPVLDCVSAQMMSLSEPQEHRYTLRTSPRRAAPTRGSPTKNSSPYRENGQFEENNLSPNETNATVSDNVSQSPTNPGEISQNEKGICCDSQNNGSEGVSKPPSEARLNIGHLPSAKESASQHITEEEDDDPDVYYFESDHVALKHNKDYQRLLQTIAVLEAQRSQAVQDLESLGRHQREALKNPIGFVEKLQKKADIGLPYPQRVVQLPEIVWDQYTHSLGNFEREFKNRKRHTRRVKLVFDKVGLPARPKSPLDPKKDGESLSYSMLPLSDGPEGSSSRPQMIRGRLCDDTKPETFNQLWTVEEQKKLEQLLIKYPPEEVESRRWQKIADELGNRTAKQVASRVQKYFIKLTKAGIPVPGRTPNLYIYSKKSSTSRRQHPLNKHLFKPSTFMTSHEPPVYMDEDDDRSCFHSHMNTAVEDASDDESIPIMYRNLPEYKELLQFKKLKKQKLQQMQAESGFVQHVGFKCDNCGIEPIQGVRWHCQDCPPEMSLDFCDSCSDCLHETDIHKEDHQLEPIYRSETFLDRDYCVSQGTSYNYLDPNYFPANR
UniProt Q2TB10: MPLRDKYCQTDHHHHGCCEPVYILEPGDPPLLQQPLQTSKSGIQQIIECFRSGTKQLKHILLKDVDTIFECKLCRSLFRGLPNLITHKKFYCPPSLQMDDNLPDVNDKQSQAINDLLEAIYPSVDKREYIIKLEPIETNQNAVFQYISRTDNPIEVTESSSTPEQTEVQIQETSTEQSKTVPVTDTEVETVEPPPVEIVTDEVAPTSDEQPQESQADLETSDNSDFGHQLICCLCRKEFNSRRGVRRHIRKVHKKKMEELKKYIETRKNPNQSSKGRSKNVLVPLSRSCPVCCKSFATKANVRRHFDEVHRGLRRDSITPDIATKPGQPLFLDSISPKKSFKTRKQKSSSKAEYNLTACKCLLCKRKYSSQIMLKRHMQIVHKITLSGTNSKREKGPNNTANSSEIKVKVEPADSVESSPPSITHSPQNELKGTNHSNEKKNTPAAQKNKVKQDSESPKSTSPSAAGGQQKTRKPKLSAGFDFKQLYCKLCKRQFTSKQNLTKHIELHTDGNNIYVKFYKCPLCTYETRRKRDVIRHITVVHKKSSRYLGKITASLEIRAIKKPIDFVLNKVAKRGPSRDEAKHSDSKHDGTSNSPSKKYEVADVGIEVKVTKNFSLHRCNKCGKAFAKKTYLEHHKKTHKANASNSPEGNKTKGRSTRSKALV
UniProt Q96JM3: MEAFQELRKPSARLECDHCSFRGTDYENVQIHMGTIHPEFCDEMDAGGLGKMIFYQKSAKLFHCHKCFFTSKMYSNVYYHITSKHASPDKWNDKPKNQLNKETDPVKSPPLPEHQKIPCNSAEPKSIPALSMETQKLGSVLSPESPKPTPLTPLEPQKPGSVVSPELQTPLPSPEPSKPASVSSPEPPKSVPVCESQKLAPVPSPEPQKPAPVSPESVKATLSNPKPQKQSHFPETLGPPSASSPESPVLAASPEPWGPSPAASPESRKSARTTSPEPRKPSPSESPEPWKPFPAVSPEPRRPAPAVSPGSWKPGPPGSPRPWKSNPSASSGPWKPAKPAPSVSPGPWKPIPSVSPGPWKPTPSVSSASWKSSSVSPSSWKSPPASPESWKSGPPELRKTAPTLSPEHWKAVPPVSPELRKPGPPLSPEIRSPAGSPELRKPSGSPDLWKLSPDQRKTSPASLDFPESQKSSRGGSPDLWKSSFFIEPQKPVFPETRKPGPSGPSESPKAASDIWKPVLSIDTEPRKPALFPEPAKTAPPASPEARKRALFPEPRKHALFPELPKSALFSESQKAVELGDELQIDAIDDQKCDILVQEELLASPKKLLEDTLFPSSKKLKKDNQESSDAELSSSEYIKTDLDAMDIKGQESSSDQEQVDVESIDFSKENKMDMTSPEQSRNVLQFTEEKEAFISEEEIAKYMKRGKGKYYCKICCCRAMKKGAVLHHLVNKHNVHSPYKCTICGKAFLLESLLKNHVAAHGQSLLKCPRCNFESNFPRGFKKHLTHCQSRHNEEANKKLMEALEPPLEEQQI
UniProt Q7Z7L7: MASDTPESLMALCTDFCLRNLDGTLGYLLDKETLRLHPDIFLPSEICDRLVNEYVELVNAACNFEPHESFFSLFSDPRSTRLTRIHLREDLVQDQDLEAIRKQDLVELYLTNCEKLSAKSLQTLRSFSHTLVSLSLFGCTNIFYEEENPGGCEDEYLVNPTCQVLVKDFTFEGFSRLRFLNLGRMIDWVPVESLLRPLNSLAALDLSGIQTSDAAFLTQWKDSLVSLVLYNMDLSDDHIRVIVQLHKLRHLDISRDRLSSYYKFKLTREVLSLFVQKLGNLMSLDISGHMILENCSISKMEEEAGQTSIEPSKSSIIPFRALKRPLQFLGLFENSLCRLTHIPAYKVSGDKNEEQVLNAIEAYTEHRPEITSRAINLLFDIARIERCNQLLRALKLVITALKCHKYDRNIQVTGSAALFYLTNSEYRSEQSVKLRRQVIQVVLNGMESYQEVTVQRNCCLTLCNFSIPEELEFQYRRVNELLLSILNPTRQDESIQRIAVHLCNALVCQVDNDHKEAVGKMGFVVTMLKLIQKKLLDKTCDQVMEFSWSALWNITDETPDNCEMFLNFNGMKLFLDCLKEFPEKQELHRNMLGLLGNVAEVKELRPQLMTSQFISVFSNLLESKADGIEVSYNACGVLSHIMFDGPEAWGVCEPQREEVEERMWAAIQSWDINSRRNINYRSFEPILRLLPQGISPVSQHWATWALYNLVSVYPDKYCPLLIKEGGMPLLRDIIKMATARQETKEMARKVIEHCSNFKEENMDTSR
UniProt Q9C0D3: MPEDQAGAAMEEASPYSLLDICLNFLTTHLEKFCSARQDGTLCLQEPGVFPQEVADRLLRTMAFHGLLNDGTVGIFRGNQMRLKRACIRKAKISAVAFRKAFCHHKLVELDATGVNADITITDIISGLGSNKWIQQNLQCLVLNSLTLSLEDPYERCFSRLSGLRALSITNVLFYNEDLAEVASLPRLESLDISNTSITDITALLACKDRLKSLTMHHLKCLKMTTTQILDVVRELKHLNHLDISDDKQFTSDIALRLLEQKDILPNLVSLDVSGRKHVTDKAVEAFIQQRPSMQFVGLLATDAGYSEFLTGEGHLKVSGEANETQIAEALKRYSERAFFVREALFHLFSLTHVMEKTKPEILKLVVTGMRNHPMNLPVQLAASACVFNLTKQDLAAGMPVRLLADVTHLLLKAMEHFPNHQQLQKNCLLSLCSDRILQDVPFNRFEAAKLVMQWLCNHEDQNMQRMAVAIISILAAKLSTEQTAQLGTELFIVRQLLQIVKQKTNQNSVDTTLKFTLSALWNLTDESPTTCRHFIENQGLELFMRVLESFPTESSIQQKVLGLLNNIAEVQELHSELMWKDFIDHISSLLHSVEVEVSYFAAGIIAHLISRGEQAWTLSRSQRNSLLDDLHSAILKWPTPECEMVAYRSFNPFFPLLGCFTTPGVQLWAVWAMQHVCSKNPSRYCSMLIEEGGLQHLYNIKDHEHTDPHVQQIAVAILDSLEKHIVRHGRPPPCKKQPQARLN
UniProt Q8NHG8: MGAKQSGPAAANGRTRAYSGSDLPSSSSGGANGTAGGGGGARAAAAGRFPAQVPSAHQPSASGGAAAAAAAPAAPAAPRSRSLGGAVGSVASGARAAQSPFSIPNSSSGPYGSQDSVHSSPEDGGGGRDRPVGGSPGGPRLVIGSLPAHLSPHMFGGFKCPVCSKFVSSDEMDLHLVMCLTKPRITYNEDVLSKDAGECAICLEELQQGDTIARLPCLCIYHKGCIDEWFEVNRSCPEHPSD
UniProt Q92618: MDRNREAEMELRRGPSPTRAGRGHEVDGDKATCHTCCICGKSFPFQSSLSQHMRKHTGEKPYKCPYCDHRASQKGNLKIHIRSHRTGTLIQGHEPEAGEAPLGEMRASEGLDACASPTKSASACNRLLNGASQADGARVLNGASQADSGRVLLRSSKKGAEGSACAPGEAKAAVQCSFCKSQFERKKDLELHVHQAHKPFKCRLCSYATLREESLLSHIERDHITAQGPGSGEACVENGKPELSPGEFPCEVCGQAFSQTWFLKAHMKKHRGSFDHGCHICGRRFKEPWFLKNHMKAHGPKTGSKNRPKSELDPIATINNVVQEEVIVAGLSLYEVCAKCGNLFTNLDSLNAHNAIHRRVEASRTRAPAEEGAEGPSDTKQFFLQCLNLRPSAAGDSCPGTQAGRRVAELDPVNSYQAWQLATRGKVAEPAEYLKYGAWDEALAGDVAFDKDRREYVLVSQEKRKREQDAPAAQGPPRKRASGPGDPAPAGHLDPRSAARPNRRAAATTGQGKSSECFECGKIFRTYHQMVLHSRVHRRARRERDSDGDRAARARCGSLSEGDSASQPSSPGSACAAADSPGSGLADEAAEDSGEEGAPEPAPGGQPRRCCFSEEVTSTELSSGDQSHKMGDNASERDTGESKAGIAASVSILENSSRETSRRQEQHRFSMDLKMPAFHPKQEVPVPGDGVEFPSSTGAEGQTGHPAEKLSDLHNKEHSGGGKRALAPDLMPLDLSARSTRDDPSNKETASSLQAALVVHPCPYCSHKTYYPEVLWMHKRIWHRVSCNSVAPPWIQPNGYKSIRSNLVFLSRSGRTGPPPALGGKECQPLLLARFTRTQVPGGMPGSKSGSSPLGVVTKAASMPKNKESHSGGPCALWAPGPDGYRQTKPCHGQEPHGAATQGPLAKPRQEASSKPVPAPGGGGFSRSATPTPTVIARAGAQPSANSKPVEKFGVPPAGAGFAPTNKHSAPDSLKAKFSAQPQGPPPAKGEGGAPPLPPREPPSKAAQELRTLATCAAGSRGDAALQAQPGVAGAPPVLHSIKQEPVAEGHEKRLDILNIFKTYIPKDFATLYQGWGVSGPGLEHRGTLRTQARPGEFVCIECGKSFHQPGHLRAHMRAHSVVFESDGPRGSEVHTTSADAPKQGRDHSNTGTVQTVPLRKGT

The other results are listed elsewhere or left out.

Compound in the first test: Nc1nc2c(ncn2[C@@H]2O[C@H](COP(=O)(O)OP(=O)(O)OP(=O)(O)O)[C@@H](O)[C@H]2O)c(=O)[nH]1
The experiment in a line: dose-dependent thermal stabilisation call (2D-TPP, DLPTP, 10% FDR) (binary (1 = stabilised)); higher = stabilised by the compound. To be noted: system: Jurkat gel-filtered lysate; concentration range 1-500 µM.
Regarding AP5S1 (UniProt Q9NUS5), the “dose-dependent thermal stabilisation call” value was inactive: 0.
The same measure, in the same setting: under ADSS (UniProt P30520) stands inactive: 0; under ANAPC4 (UniProt Q9UJX5), inactive: 0; under ACTR2 (UniProt P61160), active: 1.
On to APBB1IP (UniProt Q7Z5R6), for which the “dose-dependent thermal stabilisation call” value is inactive: 0.
The same measure, in the same setting: the figure for ANXA7 (UniProt P20073) is inactive: 0.
Same read-out and setting: under AIM1 (UniProt Q9Y4K1) stands inactive: 0.
Same read-out and setting: under AKR1A1 (UniProt P14550) stands active: 1; under AIMP1 (UniProt Q12904), inactive: 0; under ABHD14B (UniProt Q96IU4), inactive: 0.
As for ANAPC7 (UniProt Q9UJX3), the “dose-dependent thermal stabilisation call” value is inactive: 0.
Still for that read-out and setting: under APBA1 (UniProt Q02410) stands inactive: 0.
Consider AHCY (UniProt P23526), for which the “dose-dependent thermal stabilisation call” value is inactive: 0.
Regarding AKAP13 (UniProt Q12802), the “dose-dependent thermal stabilisation call” value was inactive: 0.
On to ARFGAP2 (UniProt Q8N6H7), for which the “dose-dependent thermal stabilisation call” value is inactive: 0.
Same read-out and setting: the figure for AKR1B1 (UniProt P15121) is inactive: 0.
Same read-out and setting: under ACAA2 (UniProt P42765) stands inactive: 0; under ACAP2 (UniProt Q15057), inactive: 0.
Regarding AGA (UniProt P20933), the “dose-dependent thermal stabilisation call” value was inactive: 0.

Compound in a further test: COc1ccc(Cn2ccc3ccc(C(=O)NO)cc32)cc1
The test is described as above. To be noted: system: HL-60 intact cells; concentration range 0.04-10 µM.
Take ZNF460 (UniProt Q14592): the “dose-dependent thermal stabilisation call” value is inactive: 0.
On the same count and under the same terms, the figure for ZNF330 (UniProt Q9Y3S2) is inactive: 0; for ZZZ3 (UniProt Q8IYH5) it is inactive: 0.
The same measure, in the same setting: the figure for ZNF800 (UniProt Q2TB10) is inactive: 0.
On to ZYX (UniProt Q15942), for which the “dose-dependent thermal stabilisation call” value was inactive: 0.
Same read-out and setting: under ZNF828 (UniProt Q96JM3) stands inactive: 0.
ZZEF1 (UniProt O43149): the “dose-dependent thermal stabilisation call” value was inactive: 0.
On the same count and under the same terms, under ZYG11BL (UniProt Q7Z7L7) stands inactive: 0; under ZNF281 (UniProt Q9Y2X9), inactive: 0; under ZNF629 (UniProt Q9UEG4), inactive: 0.
As for ZNF687 (UniProt Q8N1G0), the “dose-dependent thermal stabilisation call” value is inactive: 0.
The same measure, in the same setting: under ZYG11B (UniProt Q9C0D3) stands inactive: 0; under ZNRF2 (UniProt Q8NHG8), inactive: 0.
For ZNF672 (UniProt Q499Z4), the “dose-dependent thermal stabilisation call” value was inactive: 0.
Regarding ZNF516 (UniProt Q92618), the “dose-dependent thermal stabilisation call” value is inactive: 0.
As for ZNF768 (UniProt Q9H5H4), the “dose-dependent thermal stabilisation call” value is inactive: 0.
On the same count and under the same terms, under ZNF512 (UniProt Q96ME7) stands inactive: 0.
